# Test results: PubChem BioAssay AID248 (DTP/NCI, 2004)
# The list is a part of this screen's results and no random one: it gathers tests that were run many times, whatever their T/C, doses with no T/C, and many T/C values between a quarter and a half above the control. Other doses and runs of a compound stand elsewhere. T/C: endpoint of the treated group in % of that of the vehicle group. Some doses have a count of surviving animals in place of a T/C: the source holds a T/C of zero for them, seemingly a mark for toxic or unscored doses. Some doses without a T/C left all or most animals alive at the check, yet need not have been tolerated: the source hardly ever lists a survival T/C far under the control, and the zero likely stands for such cases as well. Counts of survivors are from the toxicity check (mostly the fifth day) where no day follows; animals may have died later. Schedules are NCI's codes, taken here to give the interval after Q, in days (D) or hours (H), and the number of doses after X. Some doses were run more than once; their values stand side by side, smallest first.
# Tested on: L1210 leukemia ip in BDF1 mice, survival T/C
# Assay: NCI In Vivo Anticancer Drug Screen. Data for tumor model L1210 Leukemia (intraperitoneal) in B6D2F1 (BDF1) mice
# Details: T/C endpoint: mean survival time, higher T/C = longer survival
structure (smiles),measurement,setting,value
C[N+]1(CC(=O)c2ccc(CCc3ccc(C(=O)C[N+]4(C)CCCCC4)cc3)cc2)CCCCC1,survivor count,"dose: 3.12 mg/kg/injection, schedule: Q01DX009 (ip), vehicle: Klucel (hydroxypropylcellulose) (HPC)",6 of 6
same,survivor count,"dose: 4.6 mg/kg/injection, schedule: Q01DX009 (ip), vehicle: Klucel (hydroxypropylcellulose) (HPC)",3 of 6
same,survivor count,"dose: 6.25 mg/kg/injection, schedule: Q04DX002 (ip), vehicle: saline",2 of 3
same,survivor count,"dose: 7.0 mg/kg/injection, schedule: Q01DX009 (ip), vehicle: Klucel (hydroxypropylcellulose) (HPC)",1 of 6
same,survivor count,"dose: 10.0 mg/kg/injection, schedule: Q01DX009 (ip), vehicle: Klucel (hydroxypropylcellulose) (HPC)",0 of 6
same,survivor count,"dose: 12.5 mg/kg/injection, schedule: Q04DX002 (ip), vehicle: saline",0 of 3 and 1 of 3
same,survivor count,"dose: 25.0 mg/kg/injection, schedule: Q04DX002 (ip), vehicle: saline",0 of 3
same,survivor count,"dose: 50.0 mg/kg/injection, schedule: Q04DX002 (ip), vehicle: saline",0 of 3
same,survivor count,"dose: 100.0 mg/kg/injection, schedule: Q04DX002 (ip), vehicle: saline",0 of 3
same,survivor count,"dose: 200.0 mg/kg/injection, schedule: Q04DX002 (ip), vehicle: saline",0 of 3
same,survivor count,"dose: 400.0 mg/kg/injection, schedule: Q04DX002 (ip), vehicle: saline",0 of 3
C/C=C\C(=O)OCC(C)CCC (configuration not stated),survivor count,"dose: 400.0 mg/kg/injection, schedule: Q04DX002 (ip), vehicle: saline with Tween-80",2 of 3
CCCCN(CCCC)CCCOc1cc(C)ccc1C(C)C,survivor count,"dose: 50.0 mg/kg/injection, schedule: Q04DX003 (ip), vehicle: saline",3 of 6
same,survivor count,"dose: 100.0 mg/kg/injection, schedule: Q04DX003 (ip), vehicle: saline",2 of 6
same,survivor count,"dose: 200.0 mg/kg/injection, schedule: Q04DX003 (ip), vehicle: saline",0 of 6
same,survivor count,"dose: 400.0 mg/kg/injection, schedule: Q04DX003 (ip), vehicle: saline",0 of 6
COc1ccc(C(=O)CCN2CCC(O)(c3ccccc3)CC2)cc1,survivor count,"dose: 100.0 mg/kg/injection, schedule: Q04DX003 (ip), vehicle: saline with Tween-80",6 of 6
same,survivor count,"dose: 200.0 mg/kg/injection, schedule: Q04DX003 (ip), vehicle: saline with Tween-80",1 of 6
same,survivor count,"dose: 400.0 mg/kg/injection, schedule: Q04DX003 (ip), vehicle: saline with Tween-80",1 of 6
C[N+]1(C)CC2CCCCC1C2O (configuration not stated),survivor count,"dose: 300.0 mg/kg/injection, schedule: Q01DX001 (ip), vehicle: saline",1 of 6
O=C(Nc1ccc(F)cc1)Nc1ccc(Nc2ccccc2)cc1,survivor count,"dose: 100.0 mg/kg/injection, schedule: Q01DX009 (ip), vehicle: carboxymethylcellulose (CMC)",3 of 3
same,survivor count,"dose: 100.0 mg/kg/injection, schedule: Q04DX002 (ip), vehicle: carboxymethylcellulose (CMC)",3 of 3
same,survivor count,"dose: 200.0 mg/kg/injection, schedule: Q01DX009 (ip), vehicle: carboxymethylcellulose (CMC)",3 of 3
same,survivor count,"dose: 200.0 mg/kg/injection, schedule: Q04DX002 (ip), vehicle: carboxymethylcellulose (CMC)",3 of 3
same,survivor count,"dose: 400.0 mg/kg/injection, schedule: Q04DX002 (ip), vehicle: carboxymethylcellulose (CMC)",3 of 3
C=CCNC(=O)/C=C/C(=O)O,survivor count,"dose: 400.0 mg/kg/injection, schedule: Q01DX009 (ip), vehicle: saline",0 of 6
CC(=O)Oc1ccc2c(c1)C(=O)CCC=C2,survivor count,"dose: 100.0 mg/kg/injection, schedule: Q01DX009 (ip), vehicle: other",3 of 3
O=C1CC(=O)C(Cl)=C1Cl,survivor count,"dose: 30.0 mg/kg/injection, schedule: Q01DX001 (ip), vehicle: carboxymethylcellulose (CMC)",2 of 6
same,survivor count,"dose: 60.0 mg/kg/injection, schedule: Q01DX001 (ip), vehicle: carboxymethylcellulose (CMC)",0 of 6
same,survivor count,"dose: 75.0 mg/kg/injection, schedule: Q01DX001 (ip), vehicle: carboxymethylcellulose (CMC)",0 of 6
same,survivor count,"dose: 150.0 mg/kg/injection, schedule: Q01DX001 (ip), vehicle: carboxymethylcellulose (CMC)",0 of 6
same,survivor count,"dose: 300.0 mg/kg/injection, schedule: Q01DX001 (ip), vehicle: carboxymethylcellulose (CMC)",0 of 6
